Percent effect of library compounds

Sequences of proteins named here, by UniProt entry; tags and fusion partners are left off.
UniProt I6X8D2, whole entry: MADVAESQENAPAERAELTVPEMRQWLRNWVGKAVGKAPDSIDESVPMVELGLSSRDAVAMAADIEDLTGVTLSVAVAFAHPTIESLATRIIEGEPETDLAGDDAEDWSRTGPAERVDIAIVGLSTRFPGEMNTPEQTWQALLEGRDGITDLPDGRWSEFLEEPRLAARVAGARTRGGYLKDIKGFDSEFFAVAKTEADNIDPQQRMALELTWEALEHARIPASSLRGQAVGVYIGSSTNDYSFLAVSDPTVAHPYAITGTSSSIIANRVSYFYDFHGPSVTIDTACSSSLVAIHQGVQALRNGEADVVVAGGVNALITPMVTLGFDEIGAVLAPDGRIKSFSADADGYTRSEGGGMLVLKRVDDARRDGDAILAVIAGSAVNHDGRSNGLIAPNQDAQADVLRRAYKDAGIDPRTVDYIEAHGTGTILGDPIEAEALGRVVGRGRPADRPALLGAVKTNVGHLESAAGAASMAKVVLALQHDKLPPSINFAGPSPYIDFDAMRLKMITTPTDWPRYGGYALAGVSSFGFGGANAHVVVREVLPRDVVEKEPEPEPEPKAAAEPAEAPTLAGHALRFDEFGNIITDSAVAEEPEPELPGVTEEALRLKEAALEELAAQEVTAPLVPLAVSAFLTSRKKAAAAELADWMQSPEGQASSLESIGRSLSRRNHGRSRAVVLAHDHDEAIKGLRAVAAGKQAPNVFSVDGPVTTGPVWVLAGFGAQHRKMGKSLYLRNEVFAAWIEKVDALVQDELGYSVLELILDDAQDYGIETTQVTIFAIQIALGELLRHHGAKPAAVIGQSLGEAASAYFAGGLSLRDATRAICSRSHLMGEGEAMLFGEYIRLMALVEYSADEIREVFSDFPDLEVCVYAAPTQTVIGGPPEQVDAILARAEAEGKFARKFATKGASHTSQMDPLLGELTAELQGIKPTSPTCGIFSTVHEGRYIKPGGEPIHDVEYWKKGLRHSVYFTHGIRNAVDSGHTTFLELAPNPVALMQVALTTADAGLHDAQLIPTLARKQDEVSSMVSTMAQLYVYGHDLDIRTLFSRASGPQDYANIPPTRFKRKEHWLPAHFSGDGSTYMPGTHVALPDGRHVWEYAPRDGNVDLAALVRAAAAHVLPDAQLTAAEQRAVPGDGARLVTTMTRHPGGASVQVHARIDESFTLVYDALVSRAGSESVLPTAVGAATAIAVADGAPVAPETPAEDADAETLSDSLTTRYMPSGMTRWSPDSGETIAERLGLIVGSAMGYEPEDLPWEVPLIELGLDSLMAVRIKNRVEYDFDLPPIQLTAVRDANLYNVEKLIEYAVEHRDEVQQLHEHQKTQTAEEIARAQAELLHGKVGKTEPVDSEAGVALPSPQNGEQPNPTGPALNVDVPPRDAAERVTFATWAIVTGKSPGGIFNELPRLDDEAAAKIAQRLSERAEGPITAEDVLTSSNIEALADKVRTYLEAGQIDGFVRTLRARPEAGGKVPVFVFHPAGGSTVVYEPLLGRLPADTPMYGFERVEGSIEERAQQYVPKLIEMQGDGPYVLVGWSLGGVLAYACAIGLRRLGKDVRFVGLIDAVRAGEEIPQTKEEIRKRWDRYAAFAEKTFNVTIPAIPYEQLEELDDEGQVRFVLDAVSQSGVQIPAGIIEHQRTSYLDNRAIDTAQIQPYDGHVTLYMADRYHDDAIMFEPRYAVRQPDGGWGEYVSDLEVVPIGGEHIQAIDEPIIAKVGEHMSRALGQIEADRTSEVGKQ
UniProt P9WNZ1, whole entry: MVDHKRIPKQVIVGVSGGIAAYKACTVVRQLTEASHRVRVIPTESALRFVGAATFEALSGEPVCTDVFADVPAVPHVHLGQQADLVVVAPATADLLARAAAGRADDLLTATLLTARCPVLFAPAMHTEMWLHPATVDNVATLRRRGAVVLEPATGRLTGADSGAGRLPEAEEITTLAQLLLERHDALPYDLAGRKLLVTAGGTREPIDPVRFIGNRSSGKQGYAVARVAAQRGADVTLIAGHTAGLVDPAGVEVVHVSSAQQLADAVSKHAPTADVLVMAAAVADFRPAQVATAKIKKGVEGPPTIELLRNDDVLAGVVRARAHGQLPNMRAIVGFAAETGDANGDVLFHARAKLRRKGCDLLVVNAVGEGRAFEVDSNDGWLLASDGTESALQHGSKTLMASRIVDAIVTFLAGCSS
UniProt P9WFT3, whole entry: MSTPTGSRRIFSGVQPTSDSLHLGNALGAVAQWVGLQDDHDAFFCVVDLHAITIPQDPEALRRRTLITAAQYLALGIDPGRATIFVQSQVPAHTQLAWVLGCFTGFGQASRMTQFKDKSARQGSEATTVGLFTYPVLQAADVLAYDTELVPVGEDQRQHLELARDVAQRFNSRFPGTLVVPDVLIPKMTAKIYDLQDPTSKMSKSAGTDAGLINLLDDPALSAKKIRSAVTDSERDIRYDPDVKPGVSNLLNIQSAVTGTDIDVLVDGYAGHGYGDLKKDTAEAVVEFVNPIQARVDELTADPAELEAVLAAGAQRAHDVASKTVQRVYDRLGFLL

Results are given as percent effect.
How 0% and 100% were set is not recorded. Most values in the screen are low, and negative values occur.
The compounds are a random part of those screened.
A dash means the value is not listed here; it may have been measured.

A: 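Polyketide synthase Pks13, Mycobacterium tuberculosis (UniProt I6X8D2). Enzyme assay of the thioesterase domain of polyketide synthase 13; the read-out is not stated. Tested at 30 µM. Higher reads as stronger inhibition (inferred from which compounds were picked for retests). Of about 67,000 compounds tested this way, about 300 (0.46%) reached 50% or more in at least one test.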
B: 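Coenzyme A biosynthesis protein CoaBC, Mycobacterium tuberculosis (UniProt P9WNZ1). Enzyme assay of CoaBC with a phosphate dye (Biomol Green) read at 650 nm. Concentration: 30 µM. Direction is inferred from only a few compounds that gave an IC50; most scored high, so higher reads as stronger inhibition. Most strong results did not repeat in a second test. Size under these conditions: about 67,000 compounds, about 40 of them at 50% or above in at least one test.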
C: 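Cell assay of Leishmania donovani living inside macrophages; the read-out is not stated. Tested at 30 µM. Direction is inferred from retests: higher values go with stronger inhibition. About 69,000 compounds were tested under these conditions; 1.5% (about 1,000) showed 50% or more at least once.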
D: 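Tryptophan-tRNA ligase, Mycobacterium tuberculosis (UniProt P9WFT3). Enzyme assay of tryptophanyl-tRNA synthetase; the read-out is not stated. Compounds at 10 µM. Higher most likely means stronger inhibition; the record gives no direction and few retests gave an IC50. Size under these conditions: about 65,000 compounds, about 64 of them at 50% or above in at least one test.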

| compound | A | B | C | D |
|---|---|---|---|---|
| `COc1ccc2c(c1)C(C(=O)N(C)CCc1scnc1C)CC(=O)N2` (configuration not stated) | 0.2221 | -7.661 | 5.698 | -4.47 |
| `COCCNC(=O)Cn1cc(OCc2ccccc2F)c(=O)cc1CO` | 2.617 | -13.54 | -17.89 | -3.956 |
| `Cc1ccc(OCCC(=O)N2CCCC(n3nc(C)nc3C)C2)cc1` (configuration not stated) | -11.21 | -2.71 | 9.05 | 1.558 |
| `O=C(O)[C@@H]1CN(C(=O)c2ccc(Cl)cc2)C[C@H]1c1cccc(F)c1` | -5.812 | 5.654 | -16.15 | 6.066 |
| `CCCn1cc(S(=O)(=O)N[C@H]2CN(C(C)=O)C[C@@H]2C2CC2)cn1` | -18.83 | 6.352 | 11.61 | -1.625 |
| `COCC(=O)N1CCC(Nc2ccnc3ccc(Cl)cc23)CC1` | -12.75 | 3.099 | -95.77 | -7.802 |
| `CC(C)NC(=O)C1CCc2nnc(CNC(=O)c3cccnc3)n21` (configuration not stated) | -11.98 | 1.579 | 3.191 | 0.2593 |
| `[H][C@@]12CCCO[C@]1([H])[C@H](OCC1CCOCC1)CN2C(=O)c1ccc(C)o1` | - | - | 28.28 | - |
| `CN1C(=O)CCC12CCN(S(=O)(=O)c1ccccc1)CC2` | -34.01 | 1.272 | -8.967 | -4.285 |
| `CCN(Cc1ccccc1O)CC1(C)Cc2c(N)nc(N)nc2O1` (configuration not stated) | -1.433 | 0.5256 | 38.37 | -11.89 |
| `CC[C@H]1CN(C(=O)CCn2c(C)cccc2=O)CC[C@@]1(C)O` | -9.491 | 0.2049 | 13.83 | 2.166 |
| `CCS(=O)(=O)NC[C@]12COC[C@H]1CN(Cc1cccnc1OC)C2` | -7.348 | 6.767 | - | 0.5533 |
| `COCC1COCCC12CCN(Cc1cccs1)CC2.O=C(O)C(F)(F)F` (configuration not stated) | - | - | 6.378 | - |
| `Cn1cc(CN2CCOC3(CCCN(C(=O)c4ccco4)C3)C2)cn1.O=C(O)C(F)(F)F` (configuration not stated) | - | - | -6.81 | - |
| `CN1CCOCC12CCN(C(=O)C1CCC1)CC2` | -17.74 | 3.529 | - | -4.643 |
| `O=C(NCC1CC1)[C@@H]1CCO[C@@H]2CCN(CCc3ccccc3)C[C@H]21` | -10.59 | -5.138 | - | 8.142 |
| `Cc1cc(C)c(CNC(=O)N2CCOC(c3ccccc3)C2)c(=O)[nH]1` (configuration not stated) | -3.323 | 9.814 | 23.53 | 2.508 |
| `CN(CC1(CO)CCOCC1)[C@@H]1c2ccccc2C2(CCNCC2)[C@H]1O` | 9.191 | -15.37 | -38.11 | -1.814 |
| `Cc1ccc(C(=O)N2CCC3(CC2)CC(N2CCCC2)C3)cc1.O=C(O)C(F)(F)F` | - | - | 32.3 | - |
| `COc1ccc(CN2CCCCC2c2n[nH]cc2-c2cc(C)no2)cc1.Cl` (configuration not stated) | - | - | -16.67 | - |
| `Cc1cc(C)c(CNC(=O)N2CCC(N3CCNC3=O)CC2)c(C)c1` | -15.65 | -0.978 | -12.58 | 0.0783 |
| `Cc1nc(C2CCCN2C(=O)COCc2ccccc2)no1` (configuration not stated) | 0.8937 | 8.075 | 12.68 | -3.171 |
| `CN1CCCC(CCC(=O)N2CCc3onc(C(=O)N(C)C)c3C2)C1` (configuration not stated) | -13.21 | 3.599 | -3.882 | -5.416 |
| `COCC(C)NC(=O)c1cn(C(C)(C)C)c2ncccc12` (configuration not stated) | -21.13 | 7.461 | 21.47 | -1.917 |
| `c1ncn(Cc2cnc3n2CCN(Cc2ccsc2)CC3)n1` | -16.94 | 6.995 | - | -1.233 |
| `CNC(=O)C1(c2cnccn2)CCCN1C(=O)c1cccc(F)c1` (configuration not stated) | -5.54 | 0.4902 | -5.783 | - |
| `CC(C)COCCNC(=O)NC1CCCN(c2cnn(C)c2)C1` (configuration not stated) | -15.49 | 4.713 | 11.61 | -5.054 |
| `CCCS(=O)(=O)N1CCOCC2(CCN(c3ccccn3)C2)C1` (configuration not stated) | -21.26 | 3.365 | - | -0.603 |
| `Cc1nn(C)c(Cl)c1C1CCCN1C(=O)c1ccc2nncn2c1` (configuration not stated) | -9.77 | -2.491 | -6.014 | -4.93 |
| `CC(C)C(=O)NCCCNC(=O)Nc1cc(-c2ccccc2)ns1` | -0.3079 | 0.8861 | -182.1 | 2.983 |
| `Cn1cc(CCC(=O)NS(=O)(=O)N2CCCc3ccccc32)cn1` | -14.84 | 11.59 | 9.22 | -5.083 |
| `Cc1cc(CN2CCN(C(=O)NCc3ccc(C)s3)CC2)no1` | -20.74 | 0.5141 | 15.89 | -3.541 |

Some entries from above, unchanged:

compound,A,B,C,D
Cc1cc(CN2CCN(C(=O)NCc3ccc(C)s3)CC2)no1,-20.74,0.5141,15.89,-3.541
[H][C@@]12CCCO[C@]1([H])[C@H](OCC1CCOCC1)CN2C(=O)c1ccc(C)o1,-,-,28.28,-
COCC1COCCC12CCN(Cc1cccs1)CC2.O=C(O)C(F)(F)F (configuration not stated),-,-,6.378,-

Data taken from ChEMBL document CHEMBL3988442, “University of Dundee, Small-Polar-MMV Screening Library” (2021).